Data reported in article PMC4650436.
No constants are given. Whether binding was seen depends on the method and setting. In cells and extracts the contact can be indirect. Some entries that bind do so weakly or less than the wild type.

Amino acid sequences for entries named in this document (tags omitted).
UniProt P27008: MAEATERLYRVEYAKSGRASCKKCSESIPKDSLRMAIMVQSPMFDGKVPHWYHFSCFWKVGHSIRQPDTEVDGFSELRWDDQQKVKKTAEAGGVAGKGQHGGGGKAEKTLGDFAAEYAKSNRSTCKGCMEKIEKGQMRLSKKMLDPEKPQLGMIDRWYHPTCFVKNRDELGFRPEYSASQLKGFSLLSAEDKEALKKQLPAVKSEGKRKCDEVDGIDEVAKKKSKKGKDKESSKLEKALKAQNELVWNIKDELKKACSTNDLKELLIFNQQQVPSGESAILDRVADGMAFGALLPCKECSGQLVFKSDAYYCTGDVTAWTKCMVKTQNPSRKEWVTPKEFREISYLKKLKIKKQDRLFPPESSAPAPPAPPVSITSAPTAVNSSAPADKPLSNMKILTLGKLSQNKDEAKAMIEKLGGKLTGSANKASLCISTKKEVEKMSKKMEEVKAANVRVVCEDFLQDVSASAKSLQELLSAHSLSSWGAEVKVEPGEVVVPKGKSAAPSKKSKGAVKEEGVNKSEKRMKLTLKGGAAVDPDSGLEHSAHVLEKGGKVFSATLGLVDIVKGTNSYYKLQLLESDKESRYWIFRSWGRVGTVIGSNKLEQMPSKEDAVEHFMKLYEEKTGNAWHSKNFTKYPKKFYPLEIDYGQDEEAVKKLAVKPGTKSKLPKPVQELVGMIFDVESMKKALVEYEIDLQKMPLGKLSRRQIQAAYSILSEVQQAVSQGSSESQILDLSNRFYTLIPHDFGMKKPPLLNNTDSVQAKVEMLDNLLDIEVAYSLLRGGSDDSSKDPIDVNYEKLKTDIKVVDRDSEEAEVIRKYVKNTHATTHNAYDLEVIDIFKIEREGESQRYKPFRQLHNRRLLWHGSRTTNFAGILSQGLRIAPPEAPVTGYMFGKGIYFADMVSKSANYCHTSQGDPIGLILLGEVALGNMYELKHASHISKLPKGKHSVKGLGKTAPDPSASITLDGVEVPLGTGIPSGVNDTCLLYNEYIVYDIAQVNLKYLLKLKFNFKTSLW

Target: T1, annexin A6 (Anxa6), endogenous in H9c2 cardiomyocytes (rat (endogenous in H9c2)) (UniProt P48037)
T1 sequence: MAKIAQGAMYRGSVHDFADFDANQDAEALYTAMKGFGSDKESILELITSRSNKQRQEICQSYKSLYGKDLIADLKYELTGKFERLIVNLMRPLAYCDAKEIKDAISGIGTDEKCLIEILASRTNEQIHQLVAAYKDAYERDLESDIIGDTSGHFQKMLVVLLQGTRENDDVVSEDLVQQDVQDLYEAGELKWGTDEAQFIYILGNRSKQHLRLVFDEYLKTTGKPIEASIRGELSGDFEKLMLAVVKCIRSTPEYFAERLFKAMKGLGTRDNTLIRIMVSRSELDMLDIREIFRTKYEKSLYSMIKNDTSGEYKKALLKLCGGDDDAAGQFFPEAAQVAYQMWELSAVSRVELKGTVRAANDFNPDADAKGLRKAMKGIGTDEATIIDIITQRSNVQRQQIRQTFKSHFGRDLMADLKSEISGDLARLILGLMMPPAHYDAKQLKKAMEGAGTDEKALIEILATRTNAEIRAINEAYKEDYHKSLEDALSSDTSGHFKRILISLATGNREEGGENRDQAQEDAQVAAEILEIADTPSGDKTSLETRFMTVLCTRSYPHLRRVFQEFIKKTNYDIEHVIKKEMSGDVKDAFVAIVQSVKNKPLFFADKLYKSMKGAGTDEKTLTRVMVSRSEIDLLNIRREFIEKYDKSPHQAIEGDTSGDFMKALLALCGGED
Experiment: co-IP; whole-cell lysates of wild-type H9c2 cardiomyocytes, without or with PE (also pretreated with ionomycin); antibodies coupled onto amine-reactive resin, 1 mg lysate, overnight at 4 °C; immunoblot of the immunoprecipitate

poly-(ADP-ribose) polymerase 1 (Parp1), full length, endogenous in H9c2 cardiomyocytes (from UniProt P27008 1-1014)
binding: binds
